# The other results are listed elsewhere or left out.
# B1: SynCAM (Mus musculus) (protein)
# chain: MASAVLPSGSQCAAAAAVAAAAAPPGLRLRLLLLLLSAAALIPTGDGQNLFTKDVTVIEGEVATISCQVNKSDDSVIQLLNPNRQTIYFRDFRPLKDSRFQLLNFSSSELKVSLTNVSISDEGRYFCQLYTDPPQESYTTITVLVPPRNLMIDIQKDTAVEGEEIEVNCTAMASKPATTIRWFKGNKELKGKSEVEEWSDMYTVTSQLMLKVHKEDDGVPVICQVEHPAVTGNLQTQRYLEVQYKPQVHIQMTYPLQGLTREGDAFELTCEAIGKPQPVMVTWVRVDDEMPQHAVLSGPNLFINNLNKTDNGTYRCEASNIVGKAHSDYMLYVYDPPTTIPPP
# Assays:
# [1] = molecular target: Neu5Gc(a2-8)Neu5Gc(a2-6)Gal(b1-4)GlcNAc; test: glycan array binding signal (z-score within array); higher = stronger binding; details: glycan notation: IUPAC condensed, linker removed
# How it was run: (§1)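 Negative Z-scores can be read as non-binding. The Z-score is calculated within each array and then averaged across arrays of one protein sequence at different concentrations or buffers and across linkers. Arrays, 3228 in all, were curated from the Consortium for Functional Glycomics database and kept only where the protein sequence was available.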
# [2] = molecular target: Neu5Gc(b2-6)Gal(b1-4)GlcNAc; test: as above; details: glycan notation: IUPAC condensed, linker removed
# How it was run: as §1
binder,measurement,setting,value
B1,glycan array binding signal (z-score),[1],-0.527
same,glycan array binding signal (z-score),[2],0.145

# — the supplement of paper PMC8728848
